Measured values: PubChem BioAssay AID212 (DTP/NCI, 2004)
The list is a part of this screen's results and no random one: it gathers tests that were run many times, whatever their T/C, doses with no T/C, and many T/C values between a quarter and a half above the control. Other doses and runs of a compound stand elsewhere. T/C is the treated group as % of the vehicle group. Schedules are NCI's codes, read here as Q, the interval in days (D) or hours (H), X, the number of doses. Some T/C values are followed by the survivors on the day toxicity was checked, most often the fifth; where none is given, no animal had died by that day. Some entries hold several experiments; the values are given in rising order. Some doses have a count of surviving animals in place of a T/C: the source holds a T/C of zero for them, seemingly a mark for toxic or unscored doses. Counts of survivors are from the toxicity check (mostly the fifth day) where no day follows; animals may have died later. For survival time, this PubChem deposit counts one and a half times the control or more as active, and values a quarter to a half above the control carry no call in these data; other NCI protocols may use other cut-offs.

System: BDF1 mice, colon carcinoma 38 sc, T/C %
Assay: NCI In Vivo Anticancer Drug Screen. Data for tumor model Colon Carcinoma 38 (subcutaneous) in B6D2F1 (BDF1) mice
Method in brief: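 Mice with transplanted tumors are treated with compound or vehicle. Survival or tumor size is then measured in both groups. The ratio of treated to control gives the reported figure.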

[1] = T/C endpoint: median tumor weight (est.), dose: 200.0 mg/kg/injection, schedule: Q07DX002 (ip), vehicle: saline, higher T/C = larger tumour
[2] = T/C endpoint: median tumor weight (est.), dose: 100.0 mg/kg/injection, schedule: Q07DX002 (ip), vehicle: saline, higher T/C = larger tumour

For `C[Si](C)(C)O/C=C1\CCCCC1=O`, the survivor count (T/C endpoint: median tumor weight (est.), dose: 400.0 mg/kg/injection, schedule: Q07DX002 (ip), vehicle: saline with Tween-80, higher T/C = larger tumour) was 2 of 10 on day 20 and 5 of 10 on day 20.

With `CC[C@@]1(O)C[C@H](OC2CC(N(C)C)C(OC3CC(O)C(OC4CCC(=O)C(C)O4)C(C)O3)C(C)O2)c2c(cc3c(c2O)C(=O)c2c(O)cccc2C3=O)[C@H]1C(=O)OC` (stereo partly drawn) the T/C (T/C endpoint: median survival time, dose: 13.0 mg/kg/injection, schedule: Q07DX002 (iv), vehicle: water, higher T/C = longer survival) was 132 % of control, the survivor count (T/C endpoint: median survival time, dose: 32.0 mg/kg/injection, schedule: Q07DX002 (iv), vehicle: water, higher T/C = longer survival) was 1 of 10 on day 92 and the T/C (T/C endpoint: median tumor weight (est.), dose: 0.75 mg/kg/injection, schedule: Q07DX002 (ip), vehicle: water, evaluated on day 20, higher T/C = larger tumour) was 128 % of control. For the same molecule, the survivor count (T/C endpoint: median tumor weight (est.), dose: 12.0 mg/kg/injection, schedule: Q07DX002 (ip), vehicle: water, higher T/C = larger tumour) was 6 of 10 on day 20, the survivor count (T/C endpoint: median tumor weight (est.), dose: 24.0 mg/kg/injection, schedule: Q07DX002 (ip), vehicle: water, higher T/C = larger tumour) was 0 of 10 on day 20 and the survivor count (T/C endpoint: median tumor weight (est.), dose: 24.0 mg/kg/injection, schedule: Q07DX003 (ip), vehicle: water, higher T/C = larger tumour) was 1 of 10 on day 20.

For `CCN=C=NCCCN(C)C`, the survivor count [1] was 1 of 10 on day 20 and the survivor count (T/C endpoint: median tumor weight (est.), dose: 400.0 mg/kg/injection, schedule: Q07DX002 (ip), vehicle: saline, higher T/C = larger tumour) was 0 of 10 on day 20.

With `Nc1ncnc2c1ncn2C1OC(CO)CC1O` (stereo not drawn) the survivor count (T/C endpoint: median tumor weight (est.), dose: 600.0 mg/kg/injection, schedule: Q07DX002 (ip), vehicle: Klucel (hydroxypropylcellulose) (HPC), higher T/C = larger tumour) was 5 of 10 on day 20.

`Nc1n[n+](-c2ccc(Cl)cc2)no1` was tested, and the T/C (T/C endpoint: median tumor weight (est.), dose: 25.0 mg/kg/injection, schedule: Q07DX002 (ip), vehicle: water, evaluated on day 20, higher T/C = larger tumour) was 126 % of control, the T/C (T/C endpoint: median tumor weight (est.), dose: 50.0 mg/kg/injection, schedule: Q07DX002 (ip), vehicle: water, evaluated on day 20, higher T/C = larger tumour) was 125 % of control and the survivor count (T/C endpoint: median tumor weight (est.), dose: 100.0 mg/kg/injection, schedule: Q07DX002 (ip), vehicle: water, higher T/C = larger tumour) was 0 of 10 on day 20. The survivor count (T/C endpoint: median tumor weight (est.), dose: 200.0 mg/kg/injection, schedule: Q07DX002 (ip), vehicle: water, higher T/C = larger tumour) was 0 of 10 on day 20.

With `O=CC(O)C(O)C(O)C(O)C(=O)O.[NH-]C1CCCCC1[NH-].[Pt+2]` (stereo not drawn) the survivor count (T/C endpoint: median tumor weight (est.), dose: 50.0 mg/kg/injection, schedule: Q07DX002 (ip), vehicle: saline, higher T/C = larger tumour) was 0 of 10 on day 20 and 2 of 10 on day 20, the survivor count [2] was 1 of 10 on day 20 and the survivor count [1] was 0 of 10 on day 20.

In the case of `Nc1nnc[se]1`, the survivor count (T/C endpoint: median tumor weight (est.), dose: 200.0 mg/kg/injection, schedule: Q07DX002 (ip), vehicle: saline with Tween-80, higher T/C = larger tumour) is reported as 0 of 10 on day 20.

For `C#CCNC1=C(C)C(=O)C2=C(C1=O)[C@H](COC(N)=O)[C@]1(OC)[C@@H]3N[C@@H]3CN21`, the survivor count (T/C endpoint: median tumor weight (est.), dose: 24.0 mg/kg/injection, schedule: Q07DX002 (ip), vehicle: distilled water + Tween-80, higher T/C = larger tumour) was 0 of 10 on day 20, the survivor count (T/C endpoint: median tumor weight (est.), dose: 25.0 mg/kg/injection, schedule: Q01DX001 (ip), vehicle: distilled water + Tween-80, higher T/C = larger tumour) was 0 of 10 on day 20 and the survivor count (T/C endpoint: median tumor weight (est.), dose: 50.0 mg/kg/injection, schedule: Q01DX001 (ip), vehicle: distilled water + Tween-80, higher T/C = larger tumour) was 0 of 10 on day 20. The survivor count (T/C endpoint: median tumor weight (est.), dose: 100.0 mg/kg/injection, schedule: Q01DX001 (ip), vehicle: distilled water + Tween-80, higher T/C = larger tumour) was 0 of 10 on day 20 and the survivor count (T/C endpoint: median tumor weight (est.), dose: 200.0 mg/kg/injection, schedule: Q01DX001 (ip), vehicle: distilled water + Tween-80, higher T/C = larger tumour) was 0 of 10 on day 20.

For `Cc1cn(C2CC(O)C(CO)O2)c(=O)[nH]c1=O` (stereo not drawn), the T/C (T/C endpoint: median tumor weight (est.), dose: 200.0 mg/kg/injection, schedule: Q07DX003 (ip), vehicle: saline, evaluated on day 20, higher T/C = larger tumour) was 137 % of control.

For `CC1(C)CC23C4COC(=O)C2CCC1C3CC4=O` (stereo not drawn), the T/C (T/C endpoint: median tumor weight (est.), dose: 12.5 mg/kg/injection, schedule: Q07DX002 (ip), vehicle: DMSO, evaluated on day 20, higher T/C = larger tumour) was 136 [9 of 10 alive on day 20] and 145 % of control and the survivor count (T/C endpoint: median tumor weight (est.), dose: 200.0 mg/kg/injection, schedule: Q07DX002 (ip), vehicle: DMSO, higher T/C = larger tumour) was 0 of 10 on day 20.

With `CCN(CC)CC[n+]1ccc2c(C)c3[nH]c4ccc(O)cc4c3c(C)c2c1` the survivor count [2] was 0 of 10 on day 20 and 3 of 10 on day 20 and the survivor count (T/C endpoint: median tumor weight (est.), dose: 100.0 mg/kg/injection, schedule: Q07DX002 (ip), vehicle: suspension in saline, higher T/C = larger tumour) was 0 of 10 on day 20.
